Values joined by “and” are separate entries in the source; they are usually repeats but may differ in a detail not shown here. Equal values may be shown once. The list shows a part of the results. This data set is noisy: repeats of one test often differ as much as different tests do.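 HEK293T cells were given each compound shortly before transfection with a reporter in which red mCherry is followed by the SARS-CoV-2 frameshift element and then GFP in the −1 frame, so GFP appears only after frameshifting.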

Data on nine compounds can be found in the supplement of paper PMC8256030.

This assay relates to HEK293T. Put plainly: percent viability (nuclei count) relative to control; higher = more viable cells. Conditions: 10 µM; 24 h.
Consider `NC(=O)NC1NC(=O)NC1=O` (centres undefined), for which the percent viability amounted to 144%.
Take `CC(=O)O[C@@]12CO[C@@H]1C[C@H](O)[C@@]1(C)C(=O)[C@H](O)C3=C(C)[C@@H](OC(=O)[C@H](O)[C@@H](NC(=O)OC(C)(C)C)c4ccccc4)C[C@@](O)([C@@H](OC(=O)c4ccccc4)[C@H]21)C3(C)C` [docetaxel]: the percent viability was determined as 34.1%.
For `CC(C)(C)NC(=O)N[C@H](C(=O)N1C[C@H]2[C@@H]([C@H]1C(=O)NC(CC1CCC1)C(=O)C(N)=O)C2(C)C)C(C)(C)C` (some centres undefined) [Boceprevir] the value was 51.2%; for `O=C(O)CCC(=O)O` [Katasuccin], 239%; for `COc1ccccc1OCC(O)CO` (centres undefined) [guaifenesin], 210% and 112%.
For `COC(=O)C1=C(C)NC(C)=C(C(=O)OC(C)(C)CN(C)CCC(c2ccccc2)c2ccccc2)C1c1cccc([N+](=O)[O-])c1` (centres undefined) [lercanidipine] the value was 197%.
For `NCCCC(=O)O` the value was 183%.
With `CC(=O)[C@@]12O[C@](C)(c3ccccc3)O[C@@H]1C[C@H]1[C@@H]3CCC4=CC(=O)CC[C@]4(C)[C@H]3CC[C@@]12C`, the percent viability stood at 300%.
For `CC(=O)[C@H]1CC[C@H]2[C@@H]3CC=C4C[C@@H](O)CC[C@]4(C)[C@H]3CC[C@]12C` [pregnenolone] the value was 348% and 229%.
